Assay results taken from paper PMC12375108.
These are yes or no findings as the source states them, for the method shown. For part of these data: Binding calls can cover weak binding; strength is not graded here. For part of these data: Tags and fused reporters may be left off the sequences shown.

Tests used:
[1] = biological target: GST-tagged T. marianensis hinT H100N (Thermaerobacter marianensis); assay: pull-down; 5 μg GST or GST-hinT on glutathione agarose, 2 μg AMPylated substrate, 1 h at 4 °C, TBSTX-100 with 1 mM DTT; α-AMP immunoblot; both purified
[2] = biological target: GST-tagged T. marianensis hinT H100N (Thermaerobacter marianensis); assay: pull-down; 25 μg GST-Tm hinT on glutathione agarose, 25 μg Ni-NTA purified sucA or sucA-AMP, overnight at 4 °C, TBSTX-100; eluted with 100 mM AMP; Coomassie, α-AMP and α-His immunoblot; both purified
[3] = biological target: GST-tagged T. marianensis hinT H100N (Thermaerobacter marianensis); assay: pull-down; purine nucleotide competition: 5 μg hinT on glutathione agarose, 5 μg sucA-AMP (470 nM) with no nucleotide or AMP or GMP at 1:1, 1:5 or 1:25 molar ratio; 1 h at 4 °C; α-AMP immunoblot; both purified
[4] = biological target: non-AMPylated Rab1; assay: far-Western, overlay or dot blot; dot blot: 400 ng to 25 ng of AMPylated or non-AMPylated protein spotted on nitrocellulose, probed with GST or GST-hinT at 0.125 μg/mL in TBST for 1 h, detected with α-GST; both purified
[5] = biological target: GST-tagged T. marianensis hinT H100N (Thermaerobacter marianensis); assay: BLI; GST-hinT (90 nM) immobilised on anti-GST biosensors; sucA-AMP 500 to 7.81 nM, unmodified sucA at 500 nM; 10 mM Tris pH 8, 150 mM NaCl, 0.1% Triton X-100; KD from steady-state responses, one site; both purified

B1: AMPylated sodA (enzyme, UniProt P00448 1-206)
chain: MSYTLPSLPYAYDALEPHFDKQTMEIHHTKHHQTYVNNANAALESLPEFANLPVEELITKLDQLPADKKTVLRNNAGGHANHSLFWKGLKKGTTLQGDLKAAIERDFGSVDNFKAEFEKAAASRFGSGWAWLVLKGDKLAVVSTANQDSPLMGEAISGASGFPIMGLDVWEHAYYLKFQNRRPDYIKEFWNVVNWDEAAARFAAKK
modifications: AMPylated on tyrosine, residue not given
[1]
  binding: binds

B2: AMPylated sucA (enzyme, UniProt P0AFG3 1-933)
chain: MQNSALKAWLDSSYLSGANQSWIEQLYEDFLTDPDSVDANWRSTFQQLPGTGVKPDQFHSQTREYFRRLAKDASRYSSTISDPDTNVKQVKVLQLINAYRFRGHQHANLDPLGLWQQDKVADLDPSFHDLTEADFQETFNVGSFASGKETMKLGELLEALKQTYCGPIGAEYMHITSTEEKRWIQQRIESGRATFNSEEKKRFLSELTAAEGLERYLGAKFPGAKRFSLEGGDALIPMLKEMIRHAGNSGTREVVLGMAHRGRLNVLVNVLGKKPQDLFDEFAGKHKEHLGTGDVKYHMGFSSDFQTDGGLVHLALAFNPSHLEIVSPVVIGSVRARLDRLDEPSSNKVLPITIHGDAAVTGQGVVQETLNMSKARGYEVGGTVRIVINNQVGFTTSNPLDARSTPYCTDIGKMVQAPIFHVNADDPEAVAFVTRLALDFRNTFKRDVFIDLVCYRRHGHNEADEPSATQPLMYQKIKKHPTPRKIYADKLEQEKVATLEDATEMVNLYRDALDAGDCVVAEWRPMNMHSFTWSPYLNHEWDEEYPNKVEMKRLQELAKRISTVPEAVEMQSRVAKIYGDRQAMAAGEKLFDWGGAENLAYATLVDEGIPVRLSGEDSGRGTFFHRHAVIHNQSNGSTYTPLQHIHNGQGAFRVWDSVLSEEAVLAFEYGYATAEPRTLTIWEAQFGDFANGAQVVIDQFISSGEQKWGRMCGLVMLLPHGYEGQGPEHSSARLERYLQLCAEQNMQVCVPSTPAQVYHMLRRQALRGMRRPLVVMSPKSLLRHPLAVSSLEELANGTFLPAIGEIDELDPKGVKRVVMCSGKVYYDLLEQRRKNNQHDVAIVRIEQLYPFPHKAMQEVLQQFAHVKDFVWCQEEPLNQGAWYCSQHHFREVIPFGASLRYAGRPASASPAVGYMSVHQKQQQDLVNDALNVE
modifications: multiple AMPylation sites, residues not given
[2]
  binding: binds
[3]
  binding: binds

B3: GST-tagged H. sapiens hinT H112N (enzyme, UniProt P49773 1-126)
chain: MADEIAKAQVARPGGDTIFGKIIRKEIPAKIIFEDDRCLAFHDISPQAPTHFLVIPKKHISQISVAEDDDESLLGHLMIVGKKCAADLGLNKGYRMVVNEGSDGGQSVYHVNLHVLGGRQMHWPPG
[4]
  binding: no binding (tested: 0.125 μg/mL; up to 400 ng spotted)

B4: unmodified sucA (enzyme, UniProt P0AFG3 1-933)
chain: B2 chain
[2]
  binding: no binding
[5]
  binding: no binding (tested: 500 nM)
